PubChem BioAssay AID493014 (National Center for Advancing Translational Sciences (NCATS), 2011)
This is one part of the list. Further columns of the screen follow, without active or inactive calls. The list favours compounds with an active or inconclusive main result. The note in brackets gives the kind of curve behind each potency; many fits are weak.

Experiment: qHTS Assay to Find Inhibitors of Chronic Active B-Cell Receptor Signaling
Settings: ABC-DLBCL IkBa-CBG/CBR reporter, luminescence ratio (green luciferase fused to IkBa over red control in TMD8 lymphoma cells), 4 h
How it was run: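 Compounds up to 46 uM were incubated four hours with TMD8 cells whose green CBG68 luciferase is fused to IkappaBalpha; red CBR luminescence normalised the signal, and concentration-effect curves were fitted to fusion, red and ratio data.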

[1] = measured here: IkBa-CBG green luminescence
[2] = measured here: CBR red luminescence, cell number

SMILES	AC50 [1]	AC50 [2]
C#CCOc1ccc(/C=N/NC(=O)c2cccnc2)cc1OCC	2.82 µM [rising, full curve, poor fit]	–
CC(=O)c1cccc(NC(=O)c2cnn(-c3ccccc3)c2C)c1	–	35.5 µM [falling, single point]
CC1CN(c2ncnc3c2cnn3-c2ccc(Cl)cc2)CC(C)O1 (stereo unspecified)	–	0.0058 µM [falling, full curve, poor fit]
COc1ccc(-c2csc(CCN3N=C(C)CC3=O)n2)cc1	–	15.8 µM [falling, single point]
CC(=O)N1CCN(c2ccc(NC(=O)c3ccco3)cc2Cl)CC1	–	8.91 µM [rising, partial curve, poor fit]
CCN(CC(=O)NC(C)(C)C)C(=O)c1ccccc1SCC(=O)NC1CCCCCCC1	–	6.31 µM [falling, partial curve, poor fit]
Cc1[nH]c(=O)c(C#N)c(C)c1Br	–	16.4 µM [rising, partial curve, poor fit]
Cc1ccc[n+](-c2[nH]c(=O)sc2/C=N/NC(=O)c2ccccc2[O-])c1	–	16.4 µM [falling, single point]
CCN1C(=O)CSc2ccc(C(=O)NCc3ccccc3OC)cc21	–	14.1 µM [falling, partial curve, poor fit]
COC(=O)c1c(-c2ccc(C)cc2)csc1NC(=O)C1CC=CCC1C(=O)O (stereo unspecified)	20.6 µM [rising, partial curve, poor fit]	–
COc1nc2c(C)cccc2cc1-c1noc(-c2ccco2)n1	0.651 µM [rising, full curve, poor fit]	0.731 µM [falling, full curve]
Cc1ccc(C2=N/C(=C\c3cccc(F)c3)C(=O)O2)cc1	–	0.562 µM [rising, partial curve, poor fit]
O=NN(CCc1ccncc1)c1ccc(OCc2ccccc2)cc1	–	35.5 µM [falling, single point]
Cc1c(C(=O)O)sc2nc(/C=C/c3cccc(O)c3)[nH]c(=O)c12	–	2.24 µM [falling, full curve]
CCSc1nnc(NC(=O)NCC(F)(F)F)s1	–	4.61 µM [rising, full curve]
CNc1nc(SCc2ccccc2Cl)nc2c1CCCC2	–	16.4 µM [falling, partial curve, poor fit]
O=C(c1ccc2c3n(nc2c1)-c1ccc(Cl)cc1CO3)N1CCOCC1	–	12.6 µM [rising, partial curve, poor fit]
COc1cc2cc(CCCOC(=O)c3ccc(C(F)(F)F)cc3)oc(=O)c2cc1OC	–	29.1 µM [rising, single point]
CCN(CC)CC(=O)N1CCCC(C(=O)c2ccccc2OC)C1 (stereo unspecified)	–	6.31 µM [rising, single point]
FC(F)(F)c1cccc(NC(=S)NNC(=S)Nc2cccc(C(F)(F)F)c2)c1	–	2.82 µM [rising, partial curve, poor fit]
O=C1C2C3C=CC(CO)(O3)C2C(=O)N1c1ccc(-c2ccccc2)cc1 (stereo unspecified)	–	11.2 µM [falling, partial curve]

SMILES	AC50 [1]	AC50 [2]
OC(CC#CCN1CCCC1)(c1ccccc1)c1ccccc1	–	22.4 µM [rising, partial curve, poor fit]
OCCCNc1c2ccccc2nc2ccccc12	6.31 µM [rising, full curve, poor fit]	–
COc1ccc2c(c1)c1ncn(Cc3ccccn3)c(=O)c1n2C	–	1.12 µM [falling, full curve, poor fit]
O=C(COc1ccc(Cl)cc1Br)NCC(c1ccco1)N1CCCC1 (stereo unspecified)	–	20.6 µM [rising, single point]
Cc1ccc(O)c(CNCCNCc2cc(C)ccc2O)c1	–	29.1 µM [falling, single point]
CCn1nc(C)cc1C(=O)Sc1cccc(Cl)c1	–	8.91 µM [falling, partial curve, poor fit]
Cc1ccc2nc(NC3=NCN(Cc4cccnc4)CN3)nc(C)c2c1	–	16.4 µM [rising, single point]
CCN(CC(=O)Nc1ccccc1C(F)(F)F)C(=O)c1ccc2[nH]c3c(c2c1)CC(C)CC3 (stereo unspecified)	–	11.6 µM [rising, partial curve, poor fit]
CCN(CC)S(=O)(=O)c1ccc(C(=O)NCCOC(=O)c2ccc(F)cc2F)cc1	–	0.501 µM [rising, partial curve, poor fit]
CCOc1ccc2c(c1)C(=O)c1cc(OCC(=O)O)ccc1-2	–	7.08 µM [falling, full curve, poor fit]
O=C(c1ccccc1)N1CCN(CC#Cc2ccccc2)CC1	–	5.62 µM [rising, single point]
CC1C/C(=N\NC(=O)c2cccnc2)CC(C)(C)C1 (stereo unspecified)	–	35.5 µM [falling, single point]
CCOc1cccc(-c2c(C(=O)N/N=C/c3cccs3)nnn2-c2nonc2N)c1	–	10 µM [falling, partial curve, poor fit]
N#Cc1ccc(CSC2=NCCN2)cc1	–	35.5 µM [falling, single point]
CCOc1cc(C(=O)Nc2ccc3c(c2)OCO3)ccc1OC(F)F	–	0.224 µM [rising, full curve, poor fit]
Cn1nc(-c2ccc(Cl)cc2)c2cc(C(=O)NCCCN3CCCC3)sc21	–	29.1 µM [falling, single point]
CC(C(=O)Nc1ccccc1)N1CCN(c2ccccn2)CC1 (stereo unspecified)	–	0.112 µM [rising, full curve, poor fit]
CCN(CC)CCOC(=O)c1ccc(NC(=O)c2ccc(Cl)c(S(=O)(=O)N3CCCCCC3)c2)cc1	–	14.1 µM [falling, single point]
NC(=O)C1CCN(C(=O)CSCc2ccccc2Cl)CC1	–	3.98 µM [falling, partial curve, poor fit]
O=C(NC(=O)c1ccccc1)NC1(C(F)(F)F)OCCO1	–	0.891 µM [rising, full curve, poor fit]
Cc1ccc(S(=O)(=O)N2CC(=NN=C(N)N)C2)cc1	–	35.5 µM [falling, partial curve, poor fit]

Rewritten comma-delimited: part of the list above
SMILES,AC50 [1],AC50 [2]
CCN1C(=O)CSc2ccc(C(=O)NCc3ccccc3OC)cc21,–,"14.1 µM [falling, partial curve, poor fit]"
Cc1ccc(C2=N/C(=C\c3cccc(F)c3)C(=O)O2)cc1,–,"0.562 µM [rising, partial curve, poor fit]"
O=C(c1ccc2c3n(nc2c1)-c1ccc(Cl)cc1CO3)N1CCOCC1,–,"12.6 µM [rising, partial curve, poor fit]"
CCN(CC(=O)Nc1ccccc1C(F)(F)F)C(=O)c1ccc2[nH]c3c(c2c1)CC(C)CC3 (stereo unspecified),–,"11.6 µM [rising, partial curve, poor fit]"
CCN(CC)S(=O)(=O)c1ccc(C(=O)NCCOC(=O)c2ccc(F)cc2F)cc1,–,"0.501 µM [rising, partial curve, poor fit]"
O=C(NC(=O)c1ccccc1)NC1(C(F)(F)F)OCCO1,–,"0.891 µM [rising, full curve, poor fit]"

(further entries)

SMILES	AC50 [1]	AC50 [2]
COc1ccccc1OCC(=O)Nc1ccccn1	–	8.91 µM [falling, partial curve, poor fit]
O=[N+]([O-])c1ccc(N/N=C/c2cccc(O)c2)cc1	–	31.6 µM [falling, single point]
CCn1c2ccccc2c2cc(NC(=O)CSc3nnc(-c4ccccc4OC)n3N)ccc21	–	35.5 µM [falling, partial curve, poor fit]
Cc1occc1-c1nnc(SCC(=O)Nc2ccccc2)n1C	–	35.5 µM [rising, single point]
Cc1ccc(C(C)C)cc1OCCOCCN1CCCC1	–	1.46 µM [rising, partial curve, poor fit]
Cc1cc(/C([O-])=C(/C(=S)Nc2ccc(F)cc2)[n+]2ccccc2)c(C)n1Cc1ccccc1Cl	–	3.55 µM [falling, partial curve, poor fit]
O=C(N/N=C/c1cnc2ccccc2n1)c1cccc(F)c1	–	14.6 µM [falling, partial curve, poor fit]
Cc1ccc2oc(C(=O)N(CCO)Cc3ccccc3)c(C)c2c1	–	25.1 µM [rising, single point]
CCC(=O)Nc1cccc(NC(=O)c2ccc(C)c([N+](=O)[O-])c2)c1	–	11.2 µM [falling, partial curve]
Cc1cc(NC(=O)c2ccc(S(=O)(=O)N3CCOCC3)cc2)nc2c1c(=O)oc1ccccc12	–	0.631 µM [falling, full curve, poor fit]
Cn1c(=O)c2c(nc(Oc3ccccc3N)n2C)n(C)c1=O	–	17.8 µM [falling, single point]
O=C(O)CCC/C=C\C[C@@H]1[C@@H](/C=C/[C@@H](O)COc2cccc(Cl)c2)[C@H](O)C[C@@H]1O	–	9.2 µM [rising, partial curve]
O=C(C[n+]1ccc(C(=O)NCc2ccccc2)cc1)c1ccc(Cl)cc1	–	4.47 µM [falling, single point]
CCOC(=O)C1CCN(c2c(C(=O)c3ccccc3)cnc3ccc(CC)cc23)CC1	–	0.708 µM [rising, full curve, poor fit]
CC(C)OC(=O)c1c(F)c(F)c(N2CCOCC2)c(F)c1F	–	10 µM [rising, partial curve, poor fit]
COc1ccccc1C(=O)N1CCN(c2cccc(Cl)c2)CC1	17.8 µM [falling, partial curve, poor fit]	14.1 µM [rising, single point]
COc1ccc(-c2sc3cc(OC)c(OC)cc3c2C#CCCO)cc1	–	11.6 µM [rising, partial curve, poor fit]
S=C(NCCCc1ccccc1)Nc1ccc(Br)cc1	–	35.5 µM [falling, single point]
CN(c1ccccc1)c1nc(N)c([N+](=O)[O-])c(Nc2cccc(F)c2)n1	–	2.82 µM [rising, full curve]
CCc1ccc2[nH]c(=O)c(CN(Cc3nnnn3C3CCCC3)C3CCCCC3)cc2c1	–	35.5 µM [rising, partial curve, poor fit]
O=S(=O)(/C(=C/c1ccc(C(F)(F)F)cc1)c1nc2ccccc2[nH]1)c1ccccc1	18.4 µM [rising, single point]	18.4 µM [falling, partial curve]
